No constants are given. Whether binding was seen depends on the method and setting. In cells and extracts the contact can be indirect. A yes stands for co-enrichment or nearness to the bait. Other partners may have been found. One block for each molecule: values may come before it.
Biological target: FLAG-tagged MARK2 (hMARK2 TV4, MAP/microtubule affinity-regulating kinase 2, 1–788) (human) (UniProt Q7KZI7)
Assay: affinity purification with mass spectrometry; N-terminally FLAG-tagged MARK2 TV4 or SIK2 AA overexpressed in HEK293T; cells treated with 1 μM Carfilzomib and 10 μM Forskolin or 10 μM Doxorubicin; anti-FLAG M2 magnetic beads, 3xFLAG peptide elution; MudPIT on LTQ Orbitrap Velos; endogenous partners

Protein sequences, listed by entry. Tags and fused reporters are not part of them.
UniProt Q7KZI7: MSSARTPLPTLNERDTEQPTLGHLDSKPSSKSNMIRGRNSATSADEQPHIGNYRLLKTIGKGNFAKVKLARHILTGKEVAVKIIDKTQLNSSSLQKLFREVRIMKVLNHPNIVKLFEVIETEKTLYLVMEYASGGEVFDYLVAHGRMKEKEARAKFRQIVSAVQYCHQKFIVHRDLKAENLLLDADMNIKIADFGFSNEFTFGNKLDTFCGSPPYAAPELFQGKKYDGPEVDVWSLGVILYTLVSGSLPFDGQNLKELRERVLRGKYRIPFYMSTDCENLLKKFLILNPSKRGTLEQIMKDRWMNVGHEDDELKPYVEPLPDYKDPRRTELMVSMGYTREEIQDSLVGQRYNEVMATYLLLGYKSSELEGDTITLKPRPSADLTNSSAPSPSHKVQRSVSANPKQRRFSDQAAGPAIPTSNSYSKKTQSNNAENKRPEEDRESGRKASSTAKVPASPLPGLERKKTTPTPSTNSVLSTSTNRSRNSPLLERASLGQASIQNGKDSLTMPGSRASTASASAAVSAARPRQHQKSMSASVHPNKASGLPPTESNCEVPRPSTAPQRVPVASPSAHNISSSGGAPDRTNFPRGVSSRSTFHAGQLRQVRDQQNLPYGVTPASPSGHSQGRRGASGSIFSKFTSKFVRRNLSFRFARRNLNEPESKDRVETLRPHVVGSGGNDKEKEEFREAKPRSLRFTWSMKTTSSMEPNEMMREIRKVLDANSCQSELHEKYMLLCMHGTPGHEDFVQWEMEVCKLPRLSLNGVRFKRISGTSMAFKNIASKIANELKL
UniProt Q7Z460: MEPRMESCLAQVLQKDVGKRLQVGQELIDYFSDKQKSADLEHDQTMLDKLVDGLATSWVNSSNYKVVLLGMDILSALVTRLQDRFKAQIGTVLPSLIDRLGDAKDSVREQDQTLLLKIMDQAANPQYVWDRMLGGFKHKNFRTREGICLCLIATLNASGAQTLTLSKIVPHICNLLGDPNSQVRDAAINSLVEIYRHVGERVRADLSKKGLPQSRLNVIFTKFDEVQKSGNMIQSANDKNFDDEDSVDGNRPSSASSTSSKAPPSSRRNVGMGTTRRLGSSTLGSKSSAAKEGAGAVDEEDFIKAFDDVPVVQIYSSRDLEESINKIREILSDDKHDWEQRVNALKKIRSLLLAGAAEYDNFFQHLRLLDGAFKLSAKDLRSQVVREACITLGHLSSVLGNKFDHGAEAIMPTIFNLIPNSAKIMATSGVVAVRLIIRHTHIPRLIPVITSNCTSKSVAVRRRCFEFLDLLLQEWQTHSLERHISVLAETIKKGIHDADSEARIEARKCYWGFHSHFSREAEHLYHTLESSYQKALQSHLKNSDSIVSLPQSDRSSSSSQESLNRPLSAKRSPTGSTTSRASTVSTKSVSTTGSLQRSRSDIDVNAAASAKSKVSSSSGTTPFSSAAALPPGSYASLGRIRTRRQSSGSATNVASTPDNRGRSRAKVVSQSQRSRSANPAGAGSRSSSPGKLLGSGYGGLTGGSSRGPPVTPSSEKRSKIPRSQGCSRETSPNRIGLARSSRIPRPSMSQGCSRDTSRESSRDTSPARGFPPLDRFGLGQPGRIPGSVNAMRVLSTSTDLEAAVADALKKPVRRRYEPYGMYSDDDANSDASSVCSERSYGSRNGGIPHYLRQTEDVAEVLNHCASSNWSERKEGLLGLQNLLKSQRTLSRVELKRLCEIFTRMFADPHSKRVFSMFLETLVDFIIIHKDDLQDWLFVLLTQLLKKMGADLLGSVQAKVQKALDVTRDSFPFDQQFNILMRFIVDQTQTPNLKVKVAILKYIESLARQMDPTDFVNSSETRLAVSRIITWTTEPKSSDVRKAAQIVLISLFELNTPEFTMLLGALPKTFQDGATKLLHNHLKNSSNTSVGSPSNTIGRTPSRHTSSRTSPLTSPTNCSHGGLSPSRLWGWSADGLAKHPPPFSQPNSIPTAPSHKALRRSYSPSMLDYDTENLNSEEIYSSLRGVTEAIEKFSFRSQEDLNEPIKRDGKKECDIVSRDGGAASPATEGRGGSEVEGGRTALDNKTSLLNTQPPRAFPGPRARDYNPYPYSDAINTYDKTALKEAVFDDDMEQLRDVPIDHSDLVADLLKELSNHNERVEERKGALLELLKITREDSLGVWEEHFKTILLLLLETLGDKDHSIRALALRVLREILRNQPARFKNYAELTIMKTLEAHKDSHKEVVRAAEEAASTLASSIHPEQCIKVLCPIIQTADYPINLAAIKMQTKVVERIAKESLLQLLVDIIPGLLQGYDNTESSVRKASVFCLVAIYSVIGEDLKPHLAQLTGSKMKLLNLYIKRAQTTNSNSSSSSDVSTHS

binding: binds
Molecule: CLIP-associating protein 1 (CLASP1), endogenous (from UniProt Q7Z460 1-1538)

binding: binds
B1: CLIP-associating protein 2 (CLASP2), endogenous (protein, UniProt O75122 1-1294)
chain: MAMGDDKSFDDEESVDGNRPSSAASAFKVPAPKTSGNPANSARKPGSAGGPKVGGASKEGGAGAVDEDDFIKAFTDVPSIQIYSSRELEETLNKIREILSDDKHDWDQRANALKKIRSLLVAGAAQYDCFFQHLRLLDGALKLSAKDLRSQVVREACITVAHLSTVLGNKFDHGAEAIVPTLFNLVPNSAKVMATSGCAAIRFIIRHTHVPRLIPLITSNCTSKSVPVRRRSFEFLDLLLQEWQTHSLERHAAVLVETIKKGIHDADAEARVEARKTYMGLRNHFPGEAETLYNSLEPSYQKSLQTYLKSSGSVASLPQSDRSSSSSQESLNRPFSSKWSTANPSTVAGRVSAGSSKASSLPGSLQRSRSDIDVNAAAGAKAHHAAGQSVRSGRLGAGALNAGSYASLEDTSDKLDGTASEDGRVRAKLSAPLAGMGNAKADSRGRSRTKMVSQSQPGSRSGSPGRVLTTTALSTVSSGVQRVLVNSASAQKRSKIPRSQGCSREASPSRLSVARSSRIPRPSVSQGCSREASRESSRDTSPVRSFQPLASRHHSRSTGALYAPEVYGASGPGYGISQSSRLSSSVSAMRVLNTGSDVEEAVADALKKPARRRYESYGMHSDDDANSDASSACSERSYSSRNGSIPTYMRQTEDVAEVLNRCASSNWSERKEGLLGLQNLLKNQRTLSRVELKRLCEIFTRMFADPHGKRVFSMFLETLVDFIQVHKDDLQDWLFVLLTQLLKKMGADLLGSVQAKVQKALDVTRESFPNDLQFNILMRFTVDQTQTPSLKVKVAILKYIETLAKQMDPGDFINSSETRLAVSRVITWTTEPKSSDVRKAAQSVLISLFELNTPEFTMLLGALPKTFQDGATKLLHNHLRNTGNGTQSSMGSPLTRPTPRSPANWSSPLTSPTNTSQNTLSPSAFDYDTENMNSEDIYSSLRGVTEAIQNFSFRSQEDMNEPLKRDSKKDDGDSMCGGPGMSDPRAGGDATDSSQTALDNKASLLHSMPTHSSPRSRDYNPYNYSDSISPFNKSALKEAMFDDDADQFPDDLSLDHSDLVAELLKELSNHNERVEERKIALYELMKLTQEESFSVWDEHFKTILLLLLETLGDKEPTIRALALKVLREILRHQPARFKNYAELTVMKTLEAHKDPHKEVVRSAEEAASVLATSISPEQCIKVLCPIIQTADYPINLAAIKMQTKVIERVSKETLNLLLPEIMPGLIQGYDNSESSVRKACVFCLVAVHAVIGDELKPHLSQLTGSKMKLLNLYIKRAQTGSGGADPTTDVSGQS

From PMC6890249
